Laboratory results taken from doi:10.1101/2024.01.23.575293.
The exact form of at least one protein or probe is not confirmed. The comparison behind a weaker result is the experiment's own reference, which may not be listed here. For part of these data: Protein sequences can lack the tags named with them.

Amino acid sequences for entries named in this document (tags omitted). Residues count along the entry.
UniProt Q04207, 19-306: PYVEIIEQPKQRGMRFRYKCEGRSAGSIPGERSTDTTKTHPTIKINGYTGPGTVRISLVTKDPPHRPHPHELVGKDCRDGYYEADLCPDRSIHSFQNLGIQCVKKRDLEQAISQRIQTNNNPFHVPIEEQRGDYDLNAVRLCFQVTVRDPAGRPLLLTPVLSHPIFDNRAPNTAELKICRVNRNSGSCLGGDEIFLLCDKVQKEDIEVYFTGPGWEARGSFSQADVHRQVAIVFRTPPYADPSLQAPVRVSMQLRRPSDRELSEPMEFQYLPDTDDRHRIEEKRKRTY

Columns and labels:
[1] = target: T1, p50 RHR (alone: homodimer) (UniProt P25799); assay: EMSA; settings: p50:p50
T1 sequence (looked up, limits assumed): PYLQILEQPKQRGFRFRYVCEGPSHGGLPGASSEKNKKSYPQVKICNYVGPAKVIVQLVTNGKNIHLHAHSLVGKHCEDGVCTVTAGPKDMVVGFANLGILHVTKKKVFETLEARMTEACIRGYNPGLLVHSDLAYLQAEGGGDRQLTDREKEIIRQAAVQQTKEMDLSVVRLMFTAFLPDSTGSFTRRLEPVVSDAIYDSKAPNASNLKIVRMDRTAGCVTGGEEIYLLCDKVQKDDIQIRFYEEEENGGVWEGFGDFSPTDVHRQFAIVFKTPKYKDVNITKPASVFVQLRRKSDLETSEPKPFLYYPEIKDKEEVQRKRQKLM

RelA RHR homodimer = RelA RHR homodimer (UniProt Q04207); assay: EMSA

Sequence	binding result [1]	binding result (RelA RHR homodimer)
CCTAACATCAAGAATGTTTTTGATGTTAGG (double strand) [Il12b NF-kB3 probe (Fig S4)]	binds more weakly	–
CCTAACATCACACTAGTTTTTGATGTTAGG (double strand) [Il12b NF-kB4 probe (Fig S4)]	binds more weakly	binds more weakly
